Consider 4 substances from article PMC4709948.

Protein sequences, listed by entry. Tags and fused reporters are not part of them. Residues count along the entry.
UniProt Q15109, residues 23-404: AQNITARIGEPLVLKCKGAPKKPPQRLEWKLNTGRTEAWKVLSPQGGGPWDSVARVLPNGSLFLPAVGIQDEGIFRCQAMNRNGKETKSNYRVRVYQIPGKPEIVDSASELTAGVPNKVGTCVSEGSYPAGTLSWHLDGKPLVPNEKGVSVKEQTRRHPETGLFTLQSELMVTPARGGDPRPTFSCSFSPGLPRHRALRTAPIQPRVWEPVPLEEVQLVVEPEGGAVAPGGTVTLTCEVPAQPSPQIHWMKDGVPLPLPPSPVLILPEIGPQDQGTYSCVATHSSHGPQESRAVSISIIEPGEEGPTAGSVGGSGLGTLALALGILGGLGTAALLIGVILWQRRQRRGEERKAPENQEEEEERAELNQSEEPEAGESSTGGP
UniProt Q62151, residues 23-402: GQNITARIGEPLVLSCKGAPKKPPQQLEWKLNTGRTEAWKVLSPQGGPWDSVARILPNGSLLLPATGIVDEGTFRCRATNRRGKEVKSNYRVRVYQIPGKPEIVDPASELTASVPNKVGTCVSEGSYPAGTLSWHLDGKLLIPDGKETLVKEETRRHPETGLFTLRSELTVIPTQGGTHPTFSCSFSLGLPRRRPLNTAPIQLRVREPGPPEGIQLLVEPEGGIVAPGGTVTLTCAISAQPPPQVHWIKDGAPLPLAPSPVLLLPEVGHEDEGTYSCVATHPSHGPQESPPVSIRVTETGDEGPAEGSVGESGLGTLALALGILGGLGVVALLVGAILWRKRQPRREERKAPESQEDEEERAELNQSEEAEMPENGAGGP
UniProt Q8IW41: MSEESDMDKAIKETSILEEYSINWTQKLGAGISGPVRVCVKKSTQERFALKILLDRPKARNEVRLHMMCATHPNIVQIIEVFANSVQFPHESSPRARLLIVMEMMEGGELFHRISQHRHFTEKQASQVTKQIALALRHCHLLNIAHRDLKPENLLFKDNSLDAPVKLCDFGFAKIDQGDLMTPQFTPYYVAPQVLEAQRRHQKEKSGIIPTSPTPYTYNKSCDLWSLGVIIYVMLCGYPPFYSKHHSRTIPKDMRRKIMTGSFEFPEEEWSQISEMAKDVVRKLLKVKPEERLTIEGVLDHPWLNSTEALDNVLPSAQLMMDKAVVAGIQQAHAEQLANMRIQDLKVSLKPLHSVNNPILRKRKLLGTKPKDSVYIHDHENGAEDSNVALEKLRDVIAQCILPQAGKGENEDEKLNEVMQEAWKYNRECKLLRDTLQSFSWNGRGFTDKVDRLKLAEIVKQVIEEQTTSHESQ
UniProt O54992: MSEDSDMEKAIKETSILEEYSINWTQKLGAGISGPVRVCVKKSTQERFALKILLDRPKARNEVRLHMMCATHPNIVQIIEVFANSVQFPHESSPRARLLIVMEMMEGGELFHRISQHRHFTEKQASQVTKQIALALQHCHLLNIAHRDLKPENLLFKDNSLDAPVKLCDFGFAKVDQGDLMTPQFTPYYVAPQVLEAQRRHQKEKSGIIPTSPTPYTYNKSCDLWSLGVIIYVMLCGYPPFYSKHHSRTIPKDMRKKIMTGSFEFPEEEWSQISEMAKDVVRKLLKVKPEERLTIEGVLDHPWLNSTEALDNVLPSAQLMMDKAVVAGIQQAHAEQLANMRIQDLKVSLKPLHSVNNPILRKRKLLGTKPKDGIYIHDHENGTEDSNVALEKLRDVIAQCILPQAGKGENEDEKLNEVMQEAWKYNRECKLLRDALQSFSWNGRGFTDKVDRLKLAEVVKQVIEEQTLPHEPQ

For experiment [1], the target named is RAGE overexpressed in SH-SY5Y cells (human) (UniProt Q15109). Nature of the experiment: proximity ligation; in situ, SH-SY5Y cells co-transfected with RAGE and PRAK, treated with DMSO or 2 uM monomeric Abeta for 6 h; Duolink.
In experiment [2] the target is endogenous RAGE of SH-SY5Y cells (human (endogenous in SH-SY5Y)) (UniProt Q15109). Nature of the experiment: co-IP; endogenous proteins, SH-SY5Y cell lysates (RIPA); IP with RAGE antibody or normal IgG, western blot.
For experiment [3], the target named is endogenous RAGE of mouse brain (mouse (endogenous in brain)) (UniProt Q62151). Nature of the experiment: co-IP; endogenous proteins, total brain lysates (RIPA) of 3 months wild-type littermates and Tg6799 mice; IP with anti-RAGE antibody, western blot with anti-PRAK antibody.
Experiment [4] addresses GFP-tagged PRAK, transfected in CHO cells (UniProt Q8IW41). Nature of the experiment: co-IP; lysates of CHO cells transfected with RAGE and GFP-tagged PRAK, 1 % CHAPS buffer; IP with anti-GFP antibody, western blot with anti-RAGE antibody.

These are yes or no findings as the source states them, for the method shown. In cells and extracts the contact can be indirect. Some results given as binding are weak or reduced against the parent protein; the word gives no strength.

Turning to “PRAK overexpressed in SH-SY5Y cells (from UniProt Q8IW41 1-473) (enzyme)”, in experiment [1], the binding result is reported as “binds”. For “endogenous PRAK of SH-SY5Y cells (from UniProt Q8IW41 1-473) (enzyme)”, the binding result in experiment [2] is “binds”. Take “endogenous PRAK of mouse brain (from UniProt O54992 1-473) (enzyme)”: the binding result in experiment [3] is reported as “binds”. “full-length human RAGE, transfected in CHO cells (from UniProt Q15109 23-404) (receptor)”: in experiment [4], the binding result is “binds”.
